Test results as given in paper PMC12501296.
Results are given in words; binding and its absence hold for the method and conditions named. In cells and extracts the contact can be indirect. Some binding calls cover weakened binding; strength is not graded here. Where a sequence is shown, tags or fusion partners need not be part of it.

Sequences of proteins named here, by UniProt entry; tags and fusion partners are left off. Residues count along the entry.
UniProt O15460, residues 22-535: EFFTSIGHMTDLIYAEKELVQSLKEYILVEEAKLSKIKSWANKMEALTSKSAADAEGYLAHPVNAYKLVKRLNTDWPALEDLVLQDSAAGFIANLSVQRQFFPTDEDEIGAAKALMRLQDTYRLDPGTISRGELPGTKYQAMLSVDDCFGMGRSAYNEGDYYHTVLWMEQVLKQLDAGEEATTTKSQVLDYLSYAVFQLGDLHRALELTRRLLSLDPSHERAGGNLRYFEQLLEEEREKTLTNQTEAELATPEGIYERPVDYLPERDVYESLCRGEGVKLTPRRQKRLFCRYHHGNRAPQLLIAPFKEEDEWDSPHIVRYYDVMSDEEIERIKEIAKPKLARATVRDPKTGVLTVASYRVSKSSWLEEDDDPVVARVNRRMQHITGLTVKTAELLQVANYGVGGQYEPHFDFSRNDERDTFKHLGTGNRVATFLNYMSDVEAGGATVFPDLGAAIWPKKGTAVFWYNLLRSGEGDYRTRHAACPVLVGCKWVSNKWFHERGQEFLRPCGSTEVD

Molecular target: P4HA2-FLAG, full length, overexpressed in HEK293T cells (UniProt O15460)
Test: co-IP; lysates of HEK293T cells overexpressing P4HA2-FLAG and/or ATAD3A-HA, full length or truncated; western blot

B1: ATAD3A-HA, full length, overexpressed in HEK293T cells (protein, UniProt Q9NVI7-2 1-586)
chain: MSWLFGINKGPKGEGAGPPPPLPPAQPGAEGGGDRGLGDRPAPKDKWSNFDPTGLERAAKAARELEHSRYAKDALNLAQMQEQTLQLEQQSKLKEYEAAVEQLKSEQIRAQAEERRKTLSEETRQHQARAQYQDKLARQRYEDQLKQQQLLNEENLRKQEESVQKQEAMRRATVEREMELRHKNEMLRVEAEARARAKAERENADIIREQIRLKAAEHRQTVLESIRTAGTLFGEGFRAFVTDWDKVTATVAGLTLLAVGVYSAKNATLVAGRFIEARLGKPSLVRETSRITVLEALRHPIQVSRRLLSRPQDALEGVVLSPSLEARVRDIAIATRNTKKNRSLYRNILMYGPPGTGKTLFAKKLALHSGMDYAIMTGGDVAPMGREGVTAMHKLFDWANTSRRGLLLFVDEADAFLRKRATEKISEDLRATLNAFLYRTGQHSNKFMLVLASNQPEQFDWAINDRINEMVHFDLPGQEERERLVRMYFDKYVLKPATEGKQRLKLAQFDYGRKCSEVARLTEGMSGREIAQLAVSWQATAYASEDGVLTEAMMDTRVQDAVQQHQQKMCWLKAEGPGRGDEPSPS
binding: binds
